PubChem BioAssay AID1259415 (National Center for Advancing Translational Sciences (NCATS), 2018)
Out of some 410,000 compounds screened, about 18,000 (4.4%) were called active. Inconclusive means that the source gave no clear call. Such entries were picked first, then a sample of the others. Rule as the data show it: active = activity change below about -60%; inconclusive = no clear call, values can overlap the other calls; inactive = above about -39%. The source holds several records for some structures; these can differ, active in one and inactive in another.

experiment: qHTS Assay for inhibitors of the human cytomegalovirus (HCMV); conditions: HFF cells, HCMV-luciferase reporter, 72 h; at 57.5 µM; stronger effect = lower value
Method in brief: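 HFF cells seeded 16 h at 37C, treated with compounds, infected with luciferase-reporter HCMV at MOI 1 PFU/cell; luciferase read at 72 h post infection, normalized to buffer-only and Salinomycin controls.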
% is scaled to controls: 0 for no effect and ±100 for the full control effect.

Structure (SMILES) | activity change, negative = inhibition
O=C(Nc1ccc(F)cc1)N1CCN(C/C=C/c2ccccc2)CC1 | inactive: -6.84%
CC1CC(C)CN(CCCNC(=O)c2cc3c(s2)-c2ccccc2OC3)C1 (stereo not drawn) | inconclusive: -41.8%
CCOC(=O)c1cn2nc(Oc3cccc(F)c3)ccc2n1 | inconclusive: -46.3%
COc1ccc(-c2n[nH]c(C)c2-c2ccc(Cl)cc2)c(O)c1 | inconclusive: -54%
CC(=O)Oc1ccccc1Cn1c(C)c(C(=O)NCCC#N)sc1=O | inactive: 4.81%
COCCOC(=O)C1=C(C)N(Cc2ccccc2)C(=O)NC1c1cccc(OC)c1OC (stereo not drawn) | inactive: -22.1%
COc1ccc(NC(=O)C2CCN(c3cnccn3)CC2)cc1Cl | active: -60.2%
Cc1c(NC(=O)C2CCCCN2S(=O)(=O)c2ccc(Cl)cc2)c(=O)n(-c2ccccc2)n1C (stereo not drawn) | inconclusive: -41.1%
CCc1nc2c(OCc3ccc(F)cc3)cccn2c1N(C)C(=O)CC(C)C | inactive: -8.14%
O[C@@H]1CN(Cc2ccc(-n3cccn3)cc2)CC[C@H]1N1CCN(c2ccccc2F)CC1 | inconclusive: -52.3%
NC(=O)NC(=O)COC(=O)[C@H](Cc1ccccc1)NC(=O)c1cccs1 | inconclusive: -56.7%
NC(=S)N/N=C/c1ccccc1OC(=O)/C=C/c1ccccc1 | active: -110%
O=C(CN1C(=O)c2ccccc2S1(=O)=O)Nc1ccccc1C(=O)NCc1ccco1 | inactive: 41.6%
COc1ccc(C(CNC(=O)c2ccc(OCc3csc(C)n3)cc2)N2CCCC2)cc1 (stereo not drawn) | inconclusive: -40.1%
CCCCN(CC)CCCNC(=O)c1ccc(CS(=O)(=O)c2c(Cl)cccc2Cl)o1 | inconclusive: -49.7%
CCn1c(SCc2cccc(F)c2)nc2c(c1=O)SCC2 | active: -60.5%
O=C(O)/C=C\C(=O)Nc1ccc(N2CCN(c3ccc(Cl)c(Cl)c3)CC2)cc1 | inconclusive: -51.7%
O=S(=O)(c1ccccc1)c1cnn2c(C(F)(F)F)cc(-c3ccc(F)cc3)nc12 | inactive: 4.1%
CCCCCCNc1nc(-c2ccc(OC)cc2)c(CCC(=O)O)s1 | active: -61.6%
O=C(/C=C/c1cccc([N+](=O)[O-])c1)c1cccs1 | active: -89.5%
c1ccc2c(c1)Nc1ccncc1S2 | active: -70.7%
O=C(CN(C(=O)CCC(=O)Nc1nccs1)c1ccc(F)cc1)NCCc1ccccc1 | inconclusive: -57.7%

Taken from the entries so far (2 entries):
Structure (SMILES) | activity change, negative = inhibition
CCCCN(CC)CCCNC(=O)c1ccc(CS(=O)(=O)c2c(Cl)cccc2Cl)o1 | inconclusive: -49.7%
CCn1c(SCc2cccc(F)c2)nc2c(c1=O)SCC2 | active: -60.5%

Next compounds

Structure (SMILES) | activity change, negative = inhibition
N=c1c(C(=O)NCC2CCCO2)cc2c(=O)n3ccccc3nc2n1C1CCCCC1 (stereo not drawn) | inactive: 3.25%
CCOC(=O)c1ccc2[nH]c(CSc3nnc(-c4cccc(F)c4)n3C)cc(=O)c2c1 | inactive: 8.68%
O=C(NC1CCCC1)C1CCN(c2cnccn2)CC1 | inactive: -14.6%
O=C(NC(=O)N1CCCc2ccccc21)c1ccccc1 | inactive: 14%
Fc1ccc(-[n+]2nc(Nc3ccccc3)sc2-c2c3ccccc3cc3ccccc23)cc1 | active: -97.5%
Cc1cccc2nc(-c3cccnc3)c(Nc3ccccc3)n12 | active: -73.9%
O=S(=O)(c1ccc2[nH]ccc2c1)N1CCCCCC1 | inconclusive: -42.5%
Cc1ccccc1-n1c(/C=C/c2ccccc2F)nc2ccccc2c1=O | active: -84.7%
COc1ccccc1OCc1nc(C#N)c(N2CC(C)CC(C)C2)o1 (stereo not drawn) | inconclusive: -55.1%
Cc1nnc(N2CCOCC2)c2nn(-c3cccc(Cl)c3)c(C)c12 | inconclusive: -44.8%
COc1ccc(OC)c(C(=O)c2ccc(C(=O)Nc3ccc4ccccc4c3)cc2)c1 | inconclusive: -57.7%
c1ccc(C2c3c(ccc4ccccc34)Oc3ncn4nc(-c5ccco5)nc4c32)cc1 (stereo not drawn) | inactive: 25.2%
COC(=O)c1ccc2c(=O)n(CCCCCC(=O)NC3CCCCC3)c(=O)[nH]c2c1 | inactive: -21.6%
CC1CCN(C(=O)C2CCN(S(=O)(=O)c3cc(Cl)ccc3Cl)CC2)CC1 | active: -87.2%
CC(C)(C)N(Cc1ccccc1)C(=O)c1ccc2c(c1)OCCO2 | inactive: -12.9%
CCOc1ccc(CN(C)C(=O)CCc2ccc(S(=O)(=O)N3CCCCCC3)cc2)cc1 | active: -60.4%
CCc1cc2c(SCC(=O)Nc3cc(C)on3)ncnc2s1 | inconclusive: -43.8%
COc1ccc(S(=O)(=O)N2CCOCC2)cc1NC(=O)C1CCCCN1S(=O)(=O)c1ccccc1 (stereo not drawn) | inconclusive: -46.5%
CCN(CC)S(=O)(=O)c1cccc(C(=O)Nc2nc3cc4c(cc3s2)OCCO4)c1 | active: -98.3%
CCn1cc(S(=O)(=O)NC2CCCCC2)cn1 | active: -60.3%
Cc1c(C(=O)O)sc2nc(SCC(=O)Nc3ccc(S(=O)(=O)NC(C)(C)C)cc3)[nH]c(=O)c12 | inconclusive: -42.1%
Cc1oc2c(c(C)cc3oc(=O)c(CC(=O)NCc4ccccc4)c(C)c32)c1C | inconclusive: -51.1%

Structure (SMILES) | activity change, negative = inhibition
CCCCNC(=O)c1ccccc1Cl | active: -107%
Cc1ccc2cccc(N=Cc3c(C)[nH]n(-c4ccccc4)c3=O)c2n1 | inconclusive: -42.3%
O=C(Nc1nccs1)C1CCN(S(=O)(=O)c2ccccc2)CC1 | inconclusive: -52%
O=C1NC(c2ccccc2)Nc2c1sc(=S)n2-c1ccccc1 (stereo not drawn) | active: -104%
Cc1nnc2c(Oc3ccccc3)nc3ccccc3n12 | inconclusive: -51.1%
O=C(/C=C/c1cccc([N+](=O)[O-])c1)N1CCN(S(=O)(=O)c2cccs2)CC1 | inconclusive: -59.8%
COC(=O)c1ccc(N2C(=O)CC(N(C)Cc3ccccc3)C2=O)cc1 (stereo not drawn) | inactive: -15.4%
Cc1cccc(Oc2ccc3c(c2)Oc2ccccc2NC3=O)c1 | inactive: 16.1%
COc1ccc2nc(C)cc(SCC(=O)Nc3c(C)cccc3C)c2c1 | inconclusive: -51.6%
Cc1csc2nc(CCNS(=O)(=O)c3ccc(F)cc3)cn12 | inconclusive: -51.7%
CCOc1ccc(CNC(=O)c2ccc3c(c2)nc2n3CCC(C)C2)cc1OC (stereo not drawn) | inconclusive: -47.9%
O=C(c1cc([N+](=O)[O-])ccc1N1CCOCC1)N1CCN(c2ccccc2)CC1 | active: -87.4%
O=C(CC12CC3CC(CC(C3)C1)C2)NCO | inconclusive: -42%
CCN(CC)P(=O)(Oc1cccc(C)c1)N(CC)CC | active: -101%
CC(C)CC(NC(=O)C1CCCCC1)C(=O)NC(C)c1ccccc1 (stereo not drawn) | inactive: -34.7%
COc1cccc(C(=O)NC2CC(=O)N(c3ccc4c(c3)OCCO4)C2)c1OC (stereo not drawn) | inactive: 33.6%
CC(C)c1ccccc1NC(=S)NC(C)c1ccccc1 (stereo not drawn) | active: -87.1%
CCc1ccc(CN(C(=O)c2cccs2)C2CCS(=O)(=O)C2)cc1 (stereo not drawn) | inconclusive: -51.8%
Cc1c(OCC(=O)NCCN2CCOCC2)ccc2c(-c3ccccc3)cc(=O)oc12 | inconclusive: -48%
CCCCN(C)CCCNC(=O)c1cc(=O)[nH]c2ccc(S(=O)(=O)N3CCCCC3C)cc12 (stereo not drawn) | inconclusive: -57.7%
O=C(Nc1ccc2c(c1)OCO2)C1CC(=O)N(c2ccc(F)cc2)C1 (stereo not drawn) | inactive: 96.7%
COC(=O)c1nn(-c2ccccc2)c(Cl)c1/C=N/OCc1ccc(Cl)cc1Cl | inconclusive: -42.8%

Structure (SMILES) | activity change, negative = inhibition
Cc1ccc(C)c(NC(=S)NCc2cccs2)c1 | inconclusive: -42.3%
CC(C)(C)OC(=O)C[C@H]1C/C=C\C[C@@H](CC(=O)NCCO)C(=O)N[C@H](Cc2ccccc2)COC1=O | active: -60.8%
O=C(CSc1nc2ccccc2c(=O)n1CC1CCCO1)Nc1ccc(F)cc1 (stereo not drawn) | inconclusive: -41.4%
O=c1c2ccccc2[nH]c(=S)n1CCCN1CCN(c2ccccc2F)CC1 | active: -62.8%
CC(C)n1c(-c2cccnc2)nc2cnccc21 | inconclusive: -47.7%
O=C(NCCCN1CCN(c2ccccc2F)CC1)c1cc2c(s1)-c1ccccc1OC2 | inconclusive: -40.3%
O=C(CSc1nc2c([nH]c3ccccc32)c(=O)n1-c1ccccc1)N1CCCCCC1 | inconclusive: -57%
Cc1cccc(NC(=O)c2nc[nH]c2C(=O)N[C@@H](Cc2ccccc2)C(=O)OC(C)(C)C)c1 | inconclusive: -40.4%
COc1ccc(OC)c(NC(=O)CN2C(=O)CCc3cc(S(=O)(=O)N4CCCCC4)ccc32)c1 | inactive: 21.2%
Cc1c(N)ccc(-n2nc3ccccc3n2)c1C | inactive: -3.7%
Cc1ccc(S(=O)(=O)Nc2c(C)n(C)n(-c3ccccc3)c2=O)c(C)c1 | inactive: 3.36%
Cc1ccc(CN2CCSc3ccc(C(=O)N4CCC5(CC4)OCCO5)cc32)cc1 | inconclusive: -41.9%
CN(C)C(=C(C#N)C#N)N1CCN(c2ccc(Cl)cc2)CC1 | inconclusive: -47.7%
COc1ccc(C2(C(=O)Nc3ccc(OC)cc3OC)CCCC2)cc1 | inconclusive: -42.4%
Cc1nc2sc(C(c3ccco3)N3CCN(c4ccccc4)CC3)c(O)n2n1 (stereo not drawn) | active: -100%
O=c1cc(CSc2n[nH]c(-c3ccccc3)n2)[nH]c2ccccc12 | inconclusive: -52.5%
O=C(Nc1ccn(Cc2c(F)c(F)c(F)c(F)c2F)n1)c1cccc(Cn2cc([N+](=O)[O-])cn2)c1 | inconclusive: -42.4%
COc1cccc(C(=O)N/N=C/C(Br)=C/c2ccccc2)c1 | inconclusive: -59.6%
O=c1c(Cl)c(Cl)cnn1Cc1nnc(-c2ccc(Cl)cc2)o1 | inconclusive: -45.5%
COc1ccc(OC)c2c1C(=O)C(Cl)=C(Cl)C2=O | active: -91.2%
Cc1nnc(NCc2ccccc2)c2c1nnn2Cc1ccc(F)cc1 | inactive: -5.95%
Cc1ccc(S(=O)(=O)Nc2ccccc2/C=N/c2nc3ccccc3n2C(C)C)cc1 | inconclusive: -52.2%

Pulled by structure from above:
Structure (SMILES) | activity change, negative = inhibition
Cc1ccc(CN2CCSc3ccc(C(=O)N4CCC5(CC4)OCCO5)cc32)cc1 | inconclusive: -41.9%
O=c1c(Cl)c(Cl)cnn1Cc1nnc(-c2ccc(Cl)cc2)o1 | inconclusive: -45.5%
